Test results reported in paper PMC8315068.

Molecular target: T1, Twist1 protein (TW1), endogenous in mouse colon neutrophils (mouse (endogenous in colon neutrophils of BALB/c mice)) (UniProt P26687)
T1 sequence: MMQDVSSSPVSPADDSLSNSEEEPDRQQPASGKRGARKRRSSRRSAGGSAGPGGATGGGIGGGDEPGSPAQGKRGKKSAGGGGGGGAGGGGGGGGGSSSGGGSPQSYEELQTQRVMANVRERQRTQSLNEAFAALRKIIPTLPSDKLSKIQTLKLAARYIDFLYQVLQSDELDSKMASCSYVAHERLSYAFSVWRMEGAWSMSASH
Experiment: co-IP; protein extracts of colon neutrophils of mice treated with hypoxia for one week; Western blot

glucocorticoid receptor β (GRβ), endogenous in mouse colon neutrophils
binding: no binding

These are yes or no findings as the source states them, for the method shown. In cells and extracts the contact can be indirect.
